Paper PMC11222469
No constants are given. Whether binding was seen depends on the method and setting. Binding seen in cells or lysates may run through a third protein. Some binding calls cover weakened binding; strength is not graded here.

The chains behind the UniProt entries cited, without tags or fusion partners.
UniProt Q96FF9: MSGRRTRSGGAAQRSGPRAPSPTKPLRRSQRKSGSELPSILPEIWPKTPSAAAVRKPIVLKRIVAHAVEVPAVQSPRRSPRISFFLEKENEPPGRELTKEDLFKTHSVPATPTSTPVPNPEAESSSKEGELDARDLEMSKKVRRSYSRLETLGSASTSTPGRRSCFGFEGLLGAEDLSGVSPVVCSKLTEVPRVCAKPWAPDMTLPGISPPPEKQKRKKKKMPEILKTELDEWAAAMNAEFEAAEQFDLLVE

Key:
[1] = target: SMC1A (human (endogenous in HEK293T, MV4-11, HEL, HEK293)) (UniProt Q14683); test: co-IP; alpha-SMC1A antibody (1-10 ug per IP) overnight at 4 C, Protein-G beads, NP-40 buffer; lysates of Cas9+ HEL cells with ROSA26- or DCAF15-targeting sgRNAs; also with cycloheximide, MG132, MLN4924, indisulam or PCI-34051; Western blot
[2] = target: SMC1A (human (endogenous in HEK293T, MV4-11, HEL, HEK293)) (UniProt Q14683); test: co-IP; alpha-SMC1A antibody; lysates of HEK293 FLAG-HA-dTAG-DCAF15[Clone#1] cells, asynchronous or synchronized in G1/S, G2 or prometaphase, DMSO or dTAG-13 (100 nM) for final 6 h; Western blot
[3] = target: FLAG-tagged DCAF15 (DDB1- and Cul4-Associated Factor 15) (human) (UniProt Q66K64); test: co-IP; FLAG-immunoprecipitation from HEK293T cells transiently transfected with FLAG-DCAF15, HA-SMC1A, HA-PDS5A and HA-CDCA5, before an in vitro ubiquitination assay; Western blot
[4] = target: FLAG-CDCA5 (human) (UniProt Q96FF9); test: co-IP; FLAG-immunoprecipitation of FLAG-SMC1A constructs or FLAG-CDCA5 from HEK293T cells stably expressing HA-DCAF15, 5 uM MLN4924 for 6 h; also after siRNA against SMC3 or RAD21 or overexpression of RAD21; Western blot

Substance: CDCA5 (Sororin) (from UniProt Q96FF9 1-252)
- binding [1]: binds
- binding [2]: binds

Substance: HA-CDCA5 (from UniProt Q96FF9 1-252)
- binding [3]: binds

Substance: HA-tagged DCAF15 (from UniProt Q66K64 1-600)
- binding [4]: binds
